Laboratory results published in US20230181463A1, “OLEOGEL AND OLEOPASTE COMPOSITIONS AND USES THEREOF” (Massachusetts Institute of Technology, priority 2020, published 2023).
For part of these data: At least one read-out could not be matched to a standard name with certainty. For part of these data: At least one compound was matched to its structure with a doubt left.

Experiments:
[1] = ABZ solubility in various solubilizers; type: physicochemical; details: panel of 9 solubilizers, 24 hours
[2] = Stability of drugs in oleogels; type: physicochemical; details: oleogel, 60° C., 28 days, Propyl gallate + Methyl paraben; mean±S.D., n=5
Description: Finally, the stability of drugs in oleogels was tested (Table 3.3). Oleogels loaded with drugs (Azithromycin, Lumefantrine, or Ivermectin) were placed at different temperatures. At various times, drug was extracted from the oleogel and the concentration was measured using HPLC-UV or LC-MS/MS. Drug stability (last column) is represented as mean±S.D., n=5.

Row | Structure (SMILES) | ABZ solubilized in each solubilizer and SIF medium [1] | amount of ABZ dissolved directly in each solubilizer [1] | % drug stable [2] [%]
1 | CCCSc1ccc2nc(NC(=O)OC)[nH]c2c1 [ABZ, albendazole] | Capryol 90 and Lauroglycol are undetected | solubilized most in Capryol 90 | –
2 | CCCCN(CCCC)CC(O)c1cc(Cl)cc2c1-c1ccc(Cl)cc1/C2=C/c1ccc(Cl)cc1 (stereo not drawn) [lumefantrine] | – | – | 94 ± 5
